The other results are listed elsewhere or left out. Most values lie at the level of the controls, where differences are scatter.
Compound: CN[C@@H]1C[C@H]2O[C@@](C)([C@@H]1OC)n1c3ccccc3c3c4c(c5c6ccccc6n2c5c31)C(=O)NC4 [staurosporine]
Experiment: log2 fold change of tryptic peptide abundance, ligand vs vehicle (limited proteolysis) (log2 ratio); higher = more trypsin-susceptible (destabilized)
Conditions: ligand concentration: 20 uM; sample: K562 cleared lysate; digestion: 4 min, 22 C (HT-PELSA RT4min, Orbitrap Astral)

Protein sequences, listed by entry. Tags and fused reporters are not part of them. Lines headed by an entry give the natural chain unless they say otherwise; changes in a name come on top.
UniProt Q5SQI0: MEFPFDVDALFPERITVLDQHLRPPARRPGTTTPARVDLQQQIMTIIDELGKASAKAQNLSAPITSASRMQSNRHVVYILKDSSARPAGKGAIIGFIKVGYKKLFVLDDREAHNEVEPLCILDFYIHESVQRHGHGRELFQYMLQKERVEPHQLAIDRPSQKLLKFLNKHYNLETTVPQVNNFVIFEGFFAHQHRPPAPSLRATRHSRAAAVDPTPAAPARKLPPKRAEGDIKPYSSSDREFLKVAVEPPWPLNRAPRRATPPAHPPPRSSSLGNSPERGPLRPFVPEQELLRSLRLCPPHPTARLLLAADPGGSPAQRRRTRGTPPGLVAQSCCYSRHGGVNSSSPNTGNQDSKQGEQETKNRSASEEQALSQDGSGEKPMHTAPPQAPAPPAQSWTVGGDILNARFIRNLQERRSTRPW
UniProt Q5T481: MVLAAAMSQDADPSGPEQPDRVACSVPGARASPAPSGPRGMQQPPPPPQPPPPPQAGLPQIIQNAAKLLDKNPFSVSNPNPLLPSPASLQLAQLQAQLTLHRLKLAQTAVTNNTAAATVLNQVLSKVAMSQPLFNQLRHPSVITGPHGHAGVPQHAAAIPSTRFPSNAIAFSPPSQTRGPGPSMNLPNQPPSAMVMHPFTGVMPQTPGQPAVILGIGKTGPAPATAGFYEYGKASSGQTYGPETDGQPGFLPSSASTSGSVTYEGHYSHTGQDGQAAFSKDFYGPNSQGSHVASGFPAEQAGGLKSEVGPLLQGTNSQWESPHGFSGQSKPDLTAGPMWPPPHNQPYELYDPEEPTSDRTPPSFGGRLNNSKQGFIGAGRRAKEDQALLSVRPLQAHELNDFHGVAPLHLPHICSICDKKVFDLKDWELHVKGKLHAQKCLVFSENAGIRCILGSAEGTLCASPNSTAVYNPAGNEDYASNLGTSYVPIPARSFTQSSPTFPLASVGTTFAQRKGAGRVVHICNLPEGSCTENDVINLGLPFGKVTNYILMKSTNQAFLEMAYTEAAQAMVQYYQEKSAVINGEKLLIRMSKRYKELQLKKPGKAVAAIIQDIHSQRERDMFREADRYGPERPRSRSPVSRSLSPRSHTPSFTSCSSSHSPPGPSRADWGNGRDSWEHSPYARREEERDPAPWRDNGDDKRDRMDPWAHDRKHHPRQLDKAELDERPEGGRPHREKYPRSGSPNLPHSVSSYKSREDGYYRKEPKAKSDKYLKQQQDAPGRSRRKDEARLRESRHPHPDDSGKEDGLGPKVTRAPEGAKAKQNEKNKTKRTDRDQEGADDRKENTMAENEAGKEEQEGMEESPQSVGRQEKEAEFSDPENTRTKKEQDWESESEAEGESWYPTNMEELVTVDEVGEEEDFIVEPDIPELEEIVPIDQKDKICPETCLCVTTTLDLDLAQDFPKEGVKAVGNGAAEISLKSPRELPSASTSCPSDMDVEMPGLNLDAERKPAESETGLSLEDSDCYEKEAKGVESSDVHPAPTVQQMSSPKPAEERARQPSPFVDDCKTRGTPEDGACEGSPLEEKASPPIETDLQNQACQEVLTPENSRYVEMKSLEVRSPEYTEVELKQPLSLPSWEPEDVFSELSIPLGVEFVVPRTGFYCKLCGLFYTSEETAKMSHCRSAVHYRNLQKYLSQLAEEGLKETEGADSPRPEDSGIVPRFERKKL
UniProt Q4G0T1: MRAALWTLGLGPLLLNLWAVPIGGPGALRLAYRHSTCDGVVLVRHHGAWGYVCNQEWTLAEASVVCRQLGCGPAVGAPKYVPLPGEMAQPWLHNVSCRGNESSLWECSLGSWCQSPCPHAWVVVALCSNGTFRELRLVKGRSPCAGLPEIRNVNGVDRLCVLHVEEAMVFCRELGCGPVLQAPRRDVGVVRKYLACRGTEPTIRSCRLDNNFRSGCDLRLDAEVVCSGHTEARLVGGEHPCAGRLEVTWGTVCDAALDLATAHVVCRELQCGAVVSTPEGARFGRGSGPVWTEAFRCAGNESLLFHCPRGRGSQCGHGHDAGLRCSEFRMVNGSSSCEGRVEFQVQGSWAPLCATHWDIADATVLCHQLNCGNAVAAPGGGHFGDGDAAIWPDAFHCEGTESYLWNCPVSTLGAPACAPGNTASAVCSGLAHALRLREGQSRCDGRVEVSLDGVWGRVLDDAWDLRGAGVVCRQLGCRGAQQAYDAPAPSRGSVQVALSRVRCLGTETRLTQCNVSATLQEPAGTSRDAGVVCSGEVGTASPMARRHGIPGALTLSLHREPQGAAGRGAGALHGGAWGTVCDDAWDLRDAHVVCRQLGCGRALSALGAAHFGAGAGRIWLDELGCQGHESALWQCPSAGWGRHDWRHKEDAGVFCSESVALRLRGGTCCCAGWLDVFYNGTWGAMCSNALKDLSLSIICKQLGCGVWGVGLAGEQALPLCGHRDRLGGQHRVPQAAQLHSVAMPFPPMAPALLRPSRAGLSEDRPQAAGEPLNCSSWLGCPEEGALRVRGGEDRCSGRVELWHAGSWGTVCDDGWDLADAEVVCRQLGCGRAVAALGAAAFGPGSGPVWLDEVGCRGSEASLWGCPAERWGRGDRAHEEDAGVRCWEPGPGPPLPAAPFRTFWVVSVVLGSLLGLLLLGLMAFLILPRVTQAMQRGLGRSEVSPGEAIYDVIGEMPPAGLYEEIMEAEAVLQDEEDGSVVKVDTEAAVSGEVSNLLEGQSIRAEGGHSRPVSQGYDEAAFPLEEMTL
UniProt Q5T9A4: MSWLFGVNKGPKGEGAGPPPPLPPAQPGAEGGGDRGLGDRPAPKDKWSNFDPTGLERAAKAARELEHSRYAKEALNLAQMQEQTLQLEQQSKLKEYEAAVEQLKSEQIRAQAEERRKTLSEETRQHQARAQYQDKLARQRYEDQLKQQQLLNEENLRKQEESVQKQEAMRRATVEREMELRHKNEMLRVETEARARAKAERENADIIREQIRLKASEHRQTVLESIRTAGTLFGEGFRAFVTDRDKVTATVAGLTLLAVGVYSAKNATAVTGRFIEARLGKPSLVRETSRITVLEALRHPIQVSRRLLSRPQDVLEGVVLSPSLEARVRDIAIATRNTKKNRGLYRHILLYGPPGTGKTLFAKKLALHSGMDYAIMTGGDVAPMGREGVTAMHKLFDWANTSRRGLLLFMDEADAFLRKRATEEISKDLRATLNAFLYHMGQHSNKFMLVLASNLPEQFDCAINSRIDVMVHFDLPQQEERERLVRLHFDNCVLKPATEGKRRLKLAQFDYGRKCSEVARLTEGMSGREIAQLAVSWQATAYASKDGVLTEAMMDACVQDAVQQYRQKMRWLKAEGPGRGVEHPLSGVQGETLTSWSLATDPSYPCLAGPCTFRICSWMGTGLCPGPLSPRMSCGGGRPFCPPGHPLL
UniProt Q4AC94: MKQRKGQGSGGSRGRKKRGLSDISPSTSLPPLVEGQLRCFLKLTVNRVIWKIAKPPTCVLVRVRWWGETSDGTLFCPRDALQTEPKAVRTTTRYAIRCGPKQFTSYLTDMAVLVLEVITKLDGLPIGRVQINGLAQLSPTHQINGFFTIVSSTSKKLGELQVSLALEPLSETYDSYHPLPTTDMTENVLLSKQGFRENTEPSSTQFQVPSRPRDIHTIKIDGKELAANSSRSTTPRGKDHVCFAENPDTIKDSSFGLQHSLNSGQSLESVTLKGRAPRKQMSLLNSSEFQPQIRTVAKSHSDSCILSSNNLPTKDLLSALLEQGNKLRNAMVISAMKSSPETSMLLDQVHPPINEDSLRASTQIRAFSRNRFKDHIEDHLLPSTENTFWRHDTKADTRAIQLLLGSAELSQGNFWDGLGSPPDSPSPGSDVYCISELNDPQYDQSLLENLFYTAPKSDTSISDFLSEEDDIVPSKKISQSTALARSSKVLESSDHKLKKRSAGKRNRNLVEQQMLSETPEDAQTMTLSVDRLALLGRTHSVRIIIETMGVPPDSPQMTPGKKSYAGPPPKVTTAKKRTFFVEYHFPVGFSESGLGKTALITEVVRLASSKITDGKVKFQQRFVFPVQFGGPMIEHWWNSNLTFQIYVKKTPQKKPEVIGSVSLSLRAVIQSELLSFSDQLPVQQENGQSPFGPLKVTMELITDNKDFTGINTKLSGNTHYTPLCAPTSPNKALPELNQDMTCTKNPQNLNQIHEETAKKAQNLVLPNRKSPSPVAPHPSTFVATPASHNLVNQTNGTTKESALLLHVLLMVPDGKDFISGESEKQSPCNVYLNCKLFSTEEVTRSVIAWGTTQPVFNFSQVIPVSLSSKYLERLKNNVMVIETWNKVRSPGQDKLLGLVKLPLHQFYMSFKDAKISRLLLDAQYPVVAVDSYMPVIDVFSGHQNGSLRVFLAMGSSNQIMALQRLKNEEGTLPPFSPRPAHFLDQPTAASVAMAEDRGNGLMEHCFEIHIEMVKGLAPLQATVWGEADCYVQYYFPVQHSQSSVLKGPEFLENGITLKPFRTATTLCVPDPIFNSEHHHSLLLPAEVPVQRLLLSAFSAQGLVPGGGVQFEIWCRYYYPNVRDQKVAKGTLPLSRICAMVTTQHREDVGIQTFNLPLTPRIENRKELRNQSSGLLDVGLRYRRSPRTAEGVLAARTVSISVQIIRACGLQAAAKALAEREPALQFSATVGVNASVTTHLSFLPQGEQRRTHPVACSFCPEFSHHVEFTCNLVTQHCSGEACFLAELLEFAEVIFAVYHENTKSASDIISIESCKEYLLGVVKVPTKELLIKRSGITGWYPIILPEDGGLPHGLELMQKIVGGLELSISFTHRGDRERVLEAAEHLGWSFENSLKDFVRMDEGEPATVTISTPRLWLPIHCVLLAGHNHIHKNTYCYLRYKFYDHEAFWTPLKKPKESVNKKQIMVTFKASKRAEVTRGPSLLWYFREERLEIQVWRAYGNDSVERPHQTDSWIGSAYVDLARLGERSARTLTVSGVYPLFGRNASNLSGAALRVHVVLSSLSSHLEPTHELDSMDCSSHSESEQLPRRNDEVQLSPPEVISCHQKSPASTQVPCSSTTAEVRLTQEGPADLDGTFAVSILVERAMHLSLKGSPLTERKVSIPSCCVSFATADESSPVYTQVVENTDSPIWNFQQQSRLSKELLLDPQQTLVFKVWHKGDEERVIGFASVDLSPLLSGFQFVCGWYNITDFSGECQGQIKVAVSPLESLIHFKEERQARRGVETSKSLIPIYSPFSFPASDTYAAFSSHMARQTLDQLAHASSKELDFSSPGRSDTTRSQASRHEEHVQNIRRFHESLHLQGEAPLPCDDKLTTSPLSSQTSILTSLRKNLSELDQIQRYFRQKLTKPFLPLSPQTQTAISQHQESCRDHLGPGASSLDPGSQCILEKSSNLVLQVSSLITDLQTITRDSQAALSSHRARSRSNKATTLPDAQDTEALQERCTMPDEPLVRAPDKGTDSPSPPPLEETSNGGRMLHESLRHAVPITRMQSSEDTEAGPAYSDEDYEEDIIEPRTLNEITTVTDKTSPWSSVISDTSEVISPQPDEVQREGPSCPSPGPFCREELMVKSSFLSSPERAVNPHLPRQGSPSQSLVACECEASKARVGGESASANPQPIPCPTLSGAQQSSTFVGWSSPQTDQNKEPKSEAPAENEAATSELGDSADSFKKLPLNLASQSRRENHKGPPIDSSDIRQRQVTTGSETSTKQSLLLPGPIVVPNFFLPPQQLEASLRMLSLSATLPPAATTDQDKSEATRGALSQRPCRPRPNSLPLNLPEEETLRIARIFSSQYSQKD
UniProt Q52LJ0: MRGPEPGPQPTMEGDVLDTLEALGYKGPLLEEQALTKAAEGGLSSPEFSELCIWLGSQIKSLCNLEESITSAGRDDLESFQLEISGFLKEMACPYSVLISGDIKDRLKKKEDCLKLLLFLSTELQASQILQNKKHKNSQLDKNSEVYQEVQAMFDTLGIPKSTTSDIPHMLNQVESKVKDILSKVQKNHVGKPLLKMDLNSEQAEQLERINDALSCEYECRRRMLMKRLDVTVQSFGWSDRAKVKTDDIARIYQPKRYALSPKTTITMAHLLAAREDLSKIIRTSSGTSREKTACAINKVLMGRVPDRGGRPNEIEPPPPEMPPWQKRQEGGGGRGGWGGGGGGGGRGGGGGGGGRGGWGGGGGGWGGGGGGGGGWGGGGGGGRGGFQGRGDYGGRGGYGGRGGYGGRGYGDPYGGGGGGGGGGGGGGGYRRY
UniProt Q5JUX0, whole entry: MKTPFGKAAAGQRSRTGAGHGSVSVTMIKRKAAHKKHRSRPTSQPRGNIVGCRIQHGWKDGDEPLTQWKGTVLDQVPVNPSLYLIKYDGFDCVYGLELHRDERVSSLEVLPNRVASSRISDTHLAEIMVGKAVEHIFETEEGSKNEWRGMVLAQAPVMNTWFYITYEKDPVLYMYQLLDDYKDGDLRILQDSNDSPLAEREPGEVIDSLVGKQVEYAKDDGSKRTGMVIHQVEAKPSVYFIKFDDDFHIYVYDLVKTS

Target	log2 fold change
C6ORF134 (peptide sequence: AAAVDPTPAAPAR, peptide start residue: 209) (UniProt Q5SQI0)	0.238
RBM20 (peptide sequence: KPAESETGLSLEDSDCYEKEAK, peptide start residue: 1009) (UniProt Q5T481)	-0.423
YOD1 (peptide sequence: TNQEYCDWIKR, peptide start residue: 205) (UniProt Q5VVQ6)	0.555
NA (peptide sequence: GAQQAYDAPAPSR, peptide start residue: 479) (UniProt Q4G0T1)	0.67
ATAD3B (peptide sequence: LKEYEAAVEQLK, peptide start residue: 93) (UniProt Q5T9A4)	0.292
C2CD3 (peptide sequence: ISQSTALAR, peptide start residue: 477) (UniProt Q4AC94)	0.967
TPRG1L (peptide sequence: QTLWPLSIHDPTRR, peptide start residue: 44) (UniProt Q5T0D9)	0.303
FAM98B (peptide sequence: KKEDCLK, peptide start residue: 109) (UniProt Q52LJ0)	0.445
UniProt Q5JUX0 (peptide sequence: GTVLDQVPVNPSLYLIK, peptide start residue: 74)	0.346
WDR81 (peptide sequence: TLQPDAPLWVR, peptide start residue: 789) (UniProt Q562E7)	0.199

Reference: the supplement of paper PMC12819154, “High-throughput peptide-centric local stability assay extends protein–ligand identification to membrane proteins, tissues and bacteria” (Nature Structural & Molecular Biology, 2025)
